Some of the results follow.
Columns and labels:
Assay in all cases: log2 fold change, soluble protein after heating vs DMSO (PISA); higher = thermal stabilisation; K562 cells, 10 uM, 30 min; active = over 0.2 and 3.5 SD of the protein, either way, in both replicates (recomputed)
bafetinib = compound: Cc1ccc(NC(=O)c2ccc(CN3CC[C@H](N(C)C)C3)c(C(F)(F)F)c2)cc1Nc1nccc(-c2cncnc2)n1 [bafetinib]
Outline: (§1)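 K562 cells at 2×10^6 cells/mL were treated with 10 μM compound for 30 min. Aliquots were heated for 3 min across 48°C-58°C, pooled, and extracted in PBS with 0.5% NP-40 at 4°C; soluble protein was the supernatant after 21,000xg for 90 min. Soluble protein was quantified by TMTpro 16plex LC-MS/MS with channel sums equalised, and reported as log2 fold change in thermal stability against DMSO controls, with values from duplicates.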

Amino acid sequences for entries named in this document (tags omitted). A change or cut given only in a name is not applied to a line headed by its entry.
UniProt Q8WYQ3: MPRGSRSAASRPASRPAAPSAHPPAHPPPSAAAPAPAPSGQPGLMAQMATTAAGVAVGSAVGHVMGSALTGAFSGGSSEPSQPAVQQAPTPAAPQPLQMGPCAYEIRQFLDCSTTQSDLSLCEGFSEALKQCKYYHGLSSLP
UniProt Q9NRR3: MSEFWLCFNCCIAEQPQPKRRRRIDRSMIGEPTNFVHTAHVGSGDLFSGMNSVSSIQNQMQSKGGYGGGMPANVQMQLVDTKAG
UniProt O14519: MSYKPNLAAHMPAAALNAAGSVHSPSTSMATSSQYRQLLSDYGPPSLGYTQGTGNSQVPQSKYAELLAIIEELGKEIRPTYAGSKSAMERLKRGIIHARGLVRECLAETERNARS
UniProt Q96G28: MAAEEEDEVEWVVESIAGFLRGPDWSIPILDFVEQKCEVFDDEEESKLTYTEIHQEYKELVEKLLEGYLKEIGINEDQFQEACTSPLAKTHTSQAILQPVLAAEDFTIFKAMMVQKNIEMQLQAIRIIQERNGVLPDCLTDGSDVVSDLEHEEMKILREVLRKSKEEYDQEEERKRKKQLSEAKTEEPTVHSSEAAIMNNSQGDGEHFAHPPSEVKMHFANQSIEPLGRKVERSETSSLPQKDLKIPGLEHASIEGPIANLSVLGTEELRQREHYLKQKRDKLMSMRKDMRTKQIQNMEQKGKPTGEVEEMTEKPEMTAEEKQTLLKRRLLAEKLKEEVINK
UniProt Q9Y592: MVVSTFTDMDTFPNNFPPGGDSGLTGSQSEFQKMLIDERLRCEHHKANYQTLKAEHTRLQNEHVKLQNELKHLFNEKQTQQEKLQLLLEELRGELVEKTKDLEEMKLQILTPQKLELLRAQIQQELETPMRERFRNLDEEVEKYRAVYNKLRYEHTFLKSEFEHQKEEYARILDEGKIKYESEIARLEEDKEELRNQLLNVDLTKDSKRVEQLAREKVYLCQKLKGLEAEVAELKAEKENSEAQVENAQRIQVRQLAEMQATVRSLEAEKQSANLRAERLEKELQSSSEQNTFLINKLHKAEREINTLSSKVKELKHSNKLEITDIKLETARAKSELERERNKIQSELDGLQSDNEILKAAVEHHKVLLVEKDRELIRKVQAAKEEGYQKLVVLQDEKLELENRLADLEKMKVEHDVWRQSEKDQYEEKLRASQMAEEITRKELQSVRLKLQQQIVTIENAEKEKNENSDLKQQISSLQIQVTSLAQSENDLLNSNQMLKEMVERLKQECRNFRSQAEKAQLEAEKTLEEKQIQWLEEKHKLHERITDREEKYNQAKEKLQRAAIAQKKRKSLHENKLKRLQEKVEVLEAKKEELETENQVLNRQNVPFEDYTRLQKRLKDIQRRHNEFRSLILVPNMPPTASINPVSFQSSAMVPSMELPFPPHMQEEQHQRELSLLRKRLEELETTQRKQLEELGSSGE
UniProt Q99741: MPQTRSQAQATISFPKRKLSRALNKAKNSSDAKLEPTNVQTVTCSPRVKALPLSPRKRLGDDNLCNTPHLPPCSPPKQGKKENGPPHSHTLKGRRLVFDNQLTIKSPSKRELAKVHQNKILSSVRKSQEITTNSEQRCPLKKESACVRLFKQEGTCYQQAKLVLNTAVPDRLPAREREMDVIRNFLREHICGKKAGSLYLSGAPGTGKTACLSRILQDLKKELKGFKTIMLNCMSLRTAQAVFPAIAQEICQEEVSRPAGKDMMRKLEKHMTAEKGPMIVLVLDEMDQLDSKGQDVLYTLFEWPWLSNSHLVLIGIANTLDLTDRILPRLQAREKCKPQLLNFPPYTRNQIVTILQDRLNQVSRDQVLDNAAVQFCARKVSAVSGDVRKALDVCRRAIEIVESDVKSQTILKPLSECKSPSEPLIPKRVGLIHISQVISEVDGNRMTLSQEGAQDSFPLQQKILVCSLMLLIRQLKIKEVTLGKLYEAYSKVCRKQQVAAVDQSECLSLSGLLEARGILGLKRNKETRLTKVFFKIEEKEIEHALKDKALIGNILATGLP
UniProt Q5T655: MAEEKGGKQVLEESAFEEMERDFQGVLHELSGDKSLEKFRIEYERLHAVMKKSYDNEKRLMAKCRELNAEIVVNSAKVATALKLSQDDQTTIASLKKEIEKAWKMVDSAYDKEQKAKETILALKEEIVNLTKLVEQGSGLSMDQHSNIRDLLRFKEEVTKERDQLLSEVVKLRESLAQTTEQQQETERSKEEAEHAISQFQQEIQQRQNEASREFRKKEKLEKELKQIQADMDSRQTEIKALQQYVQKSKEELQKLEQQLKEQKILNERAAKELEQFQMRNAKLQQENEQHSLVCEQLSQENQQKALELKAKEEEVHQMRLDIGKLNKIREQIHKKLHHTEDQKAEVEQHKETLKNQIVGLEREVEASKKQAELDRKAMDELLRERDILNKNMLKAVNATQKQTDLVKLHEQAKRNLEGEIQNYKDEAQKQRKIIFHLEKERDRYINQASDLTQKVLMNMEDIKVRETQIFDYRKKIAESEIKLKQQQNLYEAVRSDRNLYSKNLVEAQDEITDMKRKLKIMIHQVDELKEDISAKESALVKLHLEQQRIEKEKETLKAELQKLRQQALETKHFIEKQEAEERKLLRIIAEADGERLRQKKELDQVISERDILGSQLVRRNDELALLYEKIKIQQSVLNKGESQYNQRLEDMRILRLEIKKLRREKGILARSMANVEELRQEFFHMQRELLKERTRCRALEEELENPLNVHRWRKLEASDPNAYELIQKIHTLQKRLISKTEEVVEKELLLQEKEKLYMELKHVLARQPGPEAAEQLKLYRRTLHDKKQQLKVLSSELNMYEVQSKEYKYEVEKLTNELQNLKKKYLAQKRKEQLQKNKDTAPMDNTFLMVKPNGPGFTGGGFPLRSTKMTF
UniProt Q7L2Z9: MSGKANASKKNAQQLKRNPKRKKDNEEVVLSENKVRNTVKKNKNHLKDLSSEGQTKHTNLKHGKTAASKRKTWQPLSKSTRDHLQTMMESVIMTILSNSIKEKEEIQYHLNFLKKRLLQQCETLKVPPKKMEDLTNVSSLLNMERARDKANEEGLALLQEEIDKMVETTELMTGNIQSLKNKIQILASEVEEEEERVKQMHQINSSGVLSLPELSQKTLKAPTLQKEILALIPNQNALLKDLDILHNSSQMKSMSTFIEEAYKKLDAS
UniProt Q53HL2: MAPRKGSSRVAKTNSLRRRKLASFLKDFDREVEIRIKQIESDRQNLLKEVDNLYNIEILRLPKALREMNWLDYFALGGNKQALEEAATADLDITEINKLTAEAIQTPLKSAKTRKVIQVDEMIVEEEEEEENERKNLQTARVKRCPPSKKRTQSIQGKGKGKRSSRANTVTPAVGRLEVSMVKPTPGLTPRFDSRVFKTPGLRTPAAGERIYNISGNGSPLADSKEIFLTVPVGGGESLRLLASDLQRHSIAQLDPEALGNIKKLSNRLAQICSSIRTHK
UniProt Q9BWU1: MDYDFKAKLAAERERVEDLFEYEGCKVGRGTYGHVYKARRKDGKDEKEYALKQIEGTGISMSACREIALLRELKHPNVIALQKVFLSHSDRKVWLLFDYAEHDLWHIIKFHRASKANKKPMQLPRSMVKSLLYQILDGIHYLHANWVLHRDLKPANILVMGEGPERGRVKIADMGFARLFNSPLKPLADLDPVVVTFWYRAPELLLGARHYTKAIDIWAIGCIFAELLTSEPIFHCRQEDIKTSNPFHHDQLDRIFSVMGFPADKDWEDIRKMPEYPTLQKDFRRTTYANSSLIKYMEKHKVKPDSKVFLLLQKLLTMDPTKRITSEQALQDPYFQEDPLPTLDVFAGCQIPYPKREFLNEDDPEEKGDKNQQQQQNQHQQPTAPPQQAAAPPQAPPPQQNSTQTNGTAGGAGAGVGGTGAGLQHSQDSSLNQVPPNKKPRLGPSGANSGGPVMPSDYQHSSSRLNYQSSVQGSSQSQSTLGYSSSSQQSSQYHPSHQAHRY
UniProt Q9BYV8: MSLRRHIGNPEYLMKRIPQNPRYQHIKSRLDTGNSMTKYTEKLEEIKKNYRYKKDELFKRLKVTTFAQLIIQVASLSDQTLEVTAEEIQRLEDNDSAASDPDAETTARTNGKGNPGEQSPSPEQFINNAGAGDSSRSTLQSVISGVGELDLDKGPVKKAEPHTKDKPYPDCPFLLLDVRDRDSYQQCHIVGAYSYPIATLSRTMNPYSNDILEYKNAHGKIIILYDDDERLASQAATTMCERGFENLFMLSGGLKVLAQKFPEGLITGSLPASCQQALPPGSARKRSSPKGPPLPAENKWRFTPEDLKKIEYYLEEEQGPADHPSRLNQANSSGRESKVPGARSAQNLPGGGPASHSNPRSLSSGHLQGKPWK
UniProt Q96EP1: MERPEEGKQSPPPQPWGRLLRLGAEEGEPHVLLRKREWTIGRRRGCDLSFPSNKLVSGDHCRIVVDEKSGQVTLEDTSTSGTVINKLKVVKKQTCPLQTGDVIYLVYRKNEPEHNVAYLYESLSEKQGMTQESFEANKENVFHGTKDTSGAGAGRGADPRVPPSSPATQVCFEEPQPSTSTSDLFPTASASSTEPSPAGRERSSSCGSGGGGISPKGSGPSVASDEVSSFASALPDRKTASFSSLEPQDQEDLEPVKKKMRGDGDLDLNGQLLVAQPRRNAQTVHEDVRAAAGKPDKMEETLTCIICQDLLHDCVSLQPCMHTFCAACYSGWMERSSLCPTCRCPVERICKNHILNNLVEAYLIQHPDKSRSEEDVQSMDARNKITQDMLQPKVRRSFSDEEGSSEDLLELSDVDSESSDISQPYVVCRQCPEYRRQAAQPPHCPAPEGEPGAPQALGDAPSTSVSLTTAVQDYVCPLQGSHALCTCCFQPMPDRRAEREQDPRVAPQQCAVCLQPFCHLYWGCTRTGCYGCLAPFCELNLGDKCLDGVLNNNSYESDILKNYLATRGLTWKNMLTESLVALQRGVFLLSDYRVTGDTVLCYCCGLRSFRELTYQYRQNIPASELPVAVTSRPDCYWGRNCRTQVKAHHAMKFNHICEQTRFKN
UniProt P24386: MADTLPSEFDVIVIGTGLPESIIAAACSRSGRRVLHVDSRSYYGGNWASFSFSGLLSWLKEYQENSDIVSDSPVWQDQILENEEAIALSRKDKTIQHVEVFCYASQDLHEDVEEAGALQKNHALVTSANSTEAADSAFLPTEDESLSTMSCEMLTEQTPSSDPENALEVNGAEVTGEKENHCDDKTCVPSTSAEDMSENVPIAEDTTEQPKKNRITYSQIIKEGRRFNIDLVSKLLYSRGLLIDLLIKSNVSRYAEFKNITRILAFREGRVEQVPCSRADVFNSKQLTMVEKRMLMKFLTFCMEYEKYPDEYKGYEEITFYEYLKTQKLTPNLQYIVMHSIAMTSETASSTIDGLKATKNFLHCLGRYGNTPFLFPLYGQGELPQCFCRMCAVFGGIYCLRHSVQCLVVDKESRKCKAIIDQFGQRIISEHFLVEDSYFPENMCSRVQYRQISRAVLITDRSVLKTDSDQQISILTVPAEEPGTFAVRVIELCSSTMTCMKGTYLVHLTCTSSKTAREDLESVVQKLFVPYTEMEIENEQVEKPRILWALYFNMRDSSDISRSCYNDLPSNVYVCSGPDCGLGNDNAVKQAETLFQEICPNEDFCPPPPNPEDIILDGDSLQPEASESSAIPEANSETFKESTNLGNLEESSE

nilotinib = compound: Cc1cn(-c2cc(NC(=O)c3ccc(C)c(Nc4nccc(-c5cccnc5)n4)c3)cc(C(F)(F)F)c2)cn1 [nilotinib]
Outline: as §1

[1] = compound: Cc1nc(Nc2n[nH]c3c2CN(C(=O)N[C@H](CN(C)C)c2ccccc2)C3(C)C)c2sccc2n1
Outline: as §1

[2] = compound: Cc1ncc(-c2ccnc(Nc3ccc(S(C)(=O)=O)cc3)n2)n1C(C)C
Outline: as §1

[3] = compound: Cn1cc(-c2ccc3nnc(C(F)(F)c4ccc5ncccc5c4)n3n2)cn1
Outline: as §1

tipifarnib = compound: Cn1cncc1[C@@](N)(c1ccc(Cl)cc1)c1ccc2c(c1)c(-c1cccc(Cl)c1)cc(=O)n2C [tipifarnib]
Outline: as §1

mubritinib = compound: FC(F)(F)c1ccc(/C=C/c2nc(COc3ccc(CCCCn4ccnn4)cc3)co2)cc1 [mubritinib]
Outline: as §1

[4] = compound: NC1(c2ccc(-c3nc4ccn5c(=O)[nH]nc5c4cc3-c3ccccc3)cc2)CCC1
Outline: as §1

[5] = compound: NCC(=O)Nc1ccc(-n2nc(C(F)(F)F)cc2-c2ccc3c(ccc4ccccc43)c2)cc1
Outline: as §1

citarinostat = compound: O=C(CCCCCCNC(=O)c1cnc(N(c2ccccc2)c2ccccc2Cl)nc1)NO [citarinostat]
Outline: as §1

silmitasertib = compound: O=C(O)c1ccc2c(c1)nc(Nc1cccc(Cl)c1)c1ccncc12 [silmitasertib]
Outline: as §1

[6] = compound: O=C1NC(=O)C(c2cnc3ccccn23)=C1c1cn2c3c(cc(F)cc13)CN(C(=O)N1CCCCC1)CC2
Outline: as §1

[7] = compound: c1cc(OCCN2CCCCC2)cc(-c2n[nH]c3ccc(-c4nnc[nH]4)cc23)c1
Outline: as §1

[8] = compound: Cn1cc(-c2ccc3c(c2)CCN3C(=O)Cc2cccc(C(F)(F)F)c2)c2c(N)ncnc21
Outline: as §1

[9] = compound: NC(=O)Nc1cc(-c2cccc(F)c2)sc1C(=O)N[C@H]1CCCNC1
Outline: as §1

[10] = compound: NC(=O)c1cnc(N[C@@H]2CCCC[C@@H]2N)nc1Nc1cccc(-n2nccn2)c1
Outline: as §1

entinostat = compound: Nc1ccccc1NC(=O)c1ccc(CNC(=O)OCc2cccnc2)cc1 [entinostat]
Outline: as §1

[11] = compound: Cc1cccc(CC(=O)N2CCc3c2ccc(-c2cn(C)c4ncnc(N)c24)c3F)n1
Outline: as §1

vorinostat = compound: O=C(CCCCCCC(=O)Nc1ccccc1)NO [vorinostat]
Outline: as §1

dasatinib = compound: Cc1nc(Nc2ncc(C(=O)Nc3c(C)cccc3Cl)s2)cc(N2CCN(CCO)CC2)n1 [dasatinib]
Outline: as §1

Measured: log2 fold change

CHCHD10 (UniProt Q8WYQ3)
inactive: bafetinib -0.07 | nilotinib -0.015 | [1] -0.005 | [2] -0.005 | [3] 0.157 | tipifarnib -0.027 | mubritinib 0.023 | [4] -0.024 | [5] 0.167 | citarinostat -0.04 | silmitasertib -0.038 | [6] -0.015 | [7] -0.073

CDC42SE2 (UniProt Q9NRR3)
inactive: bafetinib 0.216 | nilotinib 0.079 | [1] 0.008 | [2] 0.03 | [8] 0.003 | tipifarnib -0.021 | mubritinib 0.027 | [9] -0.021 | [10] 0.005 | [4] 0.218 | [5] 0.02 | entinostat 0.038 | citarinostat 0.033 | silmitasertib -0.123 | [6] -0.038 | [7] -0.03

CDK2AP1 (UniProt O14519)
inactive: bafetinib 0.112 | [11] 0.031 | nilotinib 0.071 | [1] -0.028 | [2] -0.085 | [3] 0.065 | tipifarnib 0.029 | mubritinib 0.032 | [9] 0.111 | [10] 0.041 | [4] -0.031 | entinostat 0.12 | vorinostat 0.158 | citarinostat -0.006 | silmitasertib -0.037 | [6] -0.008 | [7] 0.04

Random excerpt: two records from the list.
CHCHD10 (UniProt Q8WYQ3)
inactive: bafetinib -0.07 | nilotinib -0.015 | [1] -0.005 | [2] -0.005 | [3] 0.157 | tipifarnib -0.027 | mubritinib 0.023 | [4] -0.024 | [5] 0.167 | citarinostat -0.04 | silmitasertib -0.038 | [6] -0.015 | [7] -0.073

CDK2AP1 (UniProt O14519)
inactive: bafetinib 0.112 | [11] 0.031 | nilotinib 0.071 | [1] -0.028 | [2] -0.085 | [3] 0.065 | tipifarnib 0.029 | mubritinib 0.032 | [9] 0.111 | [10] 0.041 | [4] -0.031 | entinostat 0.12 | vorinostat 0.158 | citarinostat -0.006 | silmitasertib -0.037 | [6] -0.008 | [7] 0.04

Remaining list, next part.

CEP135 (UniProt Q66GS9)
inactive: bafetinib -0.199 | [11] 0.037 | dasatinib -0.11 | [8] 0.202 | [9] -0.113 | [10] 0.011 | entinostat 0.04 | vorinostat -0.111 | citarinostat 0.167 | [6] 0.01 | [7] 0.192

CFAP36 isoform 2 (UniProt Q96G28)
inactive: bafetinib 0.022 | [11] -0.055 | dasatinib 0.014 | [8] -0.047 | [3] 0.128 | tipifarnib 0.002 | mubritinib 0 | [9] 0.027 | [10] -0.1 | [4] -0.095 | [5] -0.152 | entinostat 0.023 | vorinostat -0.014 | citarinostat -0.022 | silmitasertib 0.131 | [6] -0.025 | [7] 0.065

CEP83 (UniProt Q9Y592)
inactive: bafetinib -0.091 | [3] -0.002 | citarinostat 0.021 | [7] 0.015

CDC6 (UniProt Q99741)
inactive: dasatinib 0.166 | [6] -0.094

CFAP58 (UniProt Q5T655)
inactive: [11] 0.009 | [3] -0.046 | tipifarnib -0.108 | mubritinib 0.127 | [4] 0.028 | vorinostat 0.018 | citarinostat -0.357 | silmitasertib -0.008 | [7] 0.392

CELSR2 (UniProt Q9HCU4)
inactive: [8] -0.096

CDT1 (UniProt Q9H211)
inactive: [6] -0.002

CENPQ (UniProt Q7L2Z9)
inactive: nilotinib -0.074 | [1] -0.026 | dasatinib 0.001 | [2] 0.128 | [8] -0.117 | mubritinib -0.074 | [9] -0.059 | [4] -0.069 | entinostat -0.109 | silmitasertib -0.059 | [6] -0.076

CDCA8 (UniProt Q53HL2)
inactive: [3] -0.043 | [9] 0.023 | entinostat -0.129

CEP131 (UniProt Q9UPN4)
inactive: [11] -0.03 | dasatinib -0.017 | [8] -0.15 | tipifarnib -0.038 | mubritinib 0.079 | [9] 0.375 | [10] -0.028 | [4] 0.117 | entinostat -0.033 | vorinostat 0.034 | silmitasertib -0.227 | [6] 0.176

CENPC (UniProt Q03188)
inactive: nilotinib -0.157 | [1] 0.045 | dasatinib 0.058 | [2] 0.094 | [8] -0.338 | tipifarnib -0.116 | [10] -0.034 | [5] 0.048 | citarinostat -0.006 | [6] 0.224 | [7] -0.191

CFL1 (UniProt E9PP50)
inactive: [11] 0.592 | nilotinib 1.14 | [1] 0.076 | [2] 0.146 | vorinostat 0.217

CDK19 (UniProt Q9BWU1)
inactive: [11] -0.014 | nilotinib -0.266 | [1] 0.297 | dasatinib 0.101 | [2] 0.338 | [8] -0.01 | [3] -0.054 | tipifarnib -0.045 | mubritinib 0.112 | [9] -0.131 | [10] -0.135 | [4] -0.093 | [5] -0.018 | entinostat -0.085 | vorinostat 0.016 | citarinostat -0.265 | silmitasertib 0.327 | [6] 0.16 | [7] -0.089

CEP41 (UniProt Q9BYV8)
inactive: [9] -0.048 | entinostat 0.24 | citarinostat 0.178 | [7] -0.331

CHFR (UniProt Q96EP1)
inactive: tipifarnib -0.094 | mubritinib 0.059 | [4] -0.059 | [5] -0.168 | citarinostat 0.064 | silmitasertib 0.175 | [6] -0.06 | [7] 0.282

CDC42BPG (UniProt Q6DT37)
inactive: [5] 0.045 | citarinostat 0.074 | [7] -0.225

CDH5 (UniProt P33151)
inactive: mubritinib -0.014 | [9] -0.052 | [4] 0.171 | entinostat -0.056 | citarinostat -0.103 | silmitasertib -0.062 | [6] 0.191 | [7] 0.213

CHM (UniProt P24386)
inactive: [11] -0.011 | dasatinib -0.139 | [8] -0.019 | [3] 0.025 | tipifarnib 0.078 | mubritinib 0.021 | [9] 0.015 | [10] -0.049 | [4] -0.168 | [5] 0.004 | entinostat 0.007 | vorinostat -0.038 | citarinostat 0.146 | silmitasertib 0.085 | [6] -0.04 | [7] -0.093

Source: the supplement of paper PMC10849652
